# Test system: MOLM-13 cells
# Assay: Ubiquitin-enrichment screen by mass spectrometry
# Assay type: cell-based, human
# Conditions: 2 μM, 24 hs
# Protocol: Details of the ubiquitin-enrichment screen are described herein. Briefly, MOLM-13 cells were treated for 24 hr. with 2 μM of UC-764864. Ubiquitin-related peptide enrichment was performed by using ubiquitin remnant motif (K-ε-GG) antibody-conjugated beads (Cell Signaling Technology, Danvers, Mass.) following the manufacturer's instructions. Tryptic peptides were loaded onto the beads, and then ubiquitin-conjugated peptides were eluted from the bead. Nanoliquid chromatography coupled to electrospray tandem mass spectrometry (nanoLC-ESI-MS/MS) analyses were performed on a TripleTof 5600+ mass spectrometer (Sciex; Concord, Ontario, Canada) coupled with a nanoLC-ultra nanoflow system (Eksigent; Dublin, Calif.) in data dependent acquisition (DDA) or data independent acquisition (DIA) modes for Sequential Window Acquisition of all Theoretical mass spectra (SWATH-MS) analysis.
# MOLM-13 cells were treated for 24 hours with 2 μM of UC-764864. The identification of ubiquitinated peptides was performed as follows: approximately 3×10^8 cells were lysed in 10 mL urea-lysis buffer (20 mM HEPES pH 8.0, 9 M urea, 1 mM sodium orthovanadate, 2.5 mM sodium pyrophosphate, 1 mM β-glycerophosphate) and then sonicated at 15W×3 bursts of 15 sec with cooling on ice between each burst. The lysate was collected by centrifuge at 20,000×g, 15 min, 15° C. Protein estimation was performed by Pierce660 protein assay (ThermoFisher; Florence, Ky.). For the In-solution tryptic digestion, cell lysate proteins (10 mg) were reduced and alkylated by 4.5 mM dithiothreitol and 10 mM iodoacetamide, respectively, and then digested by 0.1 mg/mL TPCK-treated trypsin (Worthington; Lakewood, N.J.) overnight at room temperature with gentle mixing. The reaction was stopped by adding trifluoroacetic acid (TFA) to 1% final concentration. Tryptic peptides were desalted and recovered by Sep-Pak C18 cartridge (Waters; Milford, Mass.), dried by a lyophilizer and resuspended in 1.4 mL IAP buffer (Cell Signaling Technology; Denvers, Mass.) for further enrichment procedure. Ubiquitin-related peptide enrichment was performed by using ubiquitin remnant motif (K-ε-GG) antibody-conjugated beads (Cell Signaling Technology, Danvers, Mass.) following the manufacturer's instruction. Briefly, tryptic peptides in IAP buffer (1.4 mL) were loaded onto the beads, gentle mixed, and then incubated at 4° C. for 2 h. After washing the beads using 1 mL chilled HPLC-grade water three times, ubiquitin-related peptides were eluted from the bead by 0.15% TFA. The eluate was lyophilized and kept at −80° C. until used. […] To reduce redundant peptide sequencing, former MS/MS-analyzed candidate ions were excluded after its first occurrence for 12 s. The DDA data was recorded using Analyst-1T (v.1.7) software. […]
smiles,measurement,setting,value
"CCc1ccc(C(=O)C=CSc2nc3ccc(C)cc3[nH]2)cc1 [UC-764864, 1-(4-ethylphenyl)-3-[(6-methyl-1H-benzimidazol-2-yl)sulfanyl]prop-2-en-1-one]",peptides with a decrease in ubiquitination,,66
same,peptides with an increase in ubiquitination,,55
same,proteins differentially ubiquitinated vs DMSO,,73
same,peptides differentially ubiquitinated vs DMSO,"fold change >|0.5|, P<0.05",121
